Source: paper PMC7595419
These are yes or no findings as the source states them, for the method shown. For part of these data: In cells and extracts the contact can be indirect. For part of these data: Where a sequence is shown, tags or fusion partners need not be part of it.

T1: LexA_(DBDwt)-InvF (Salmonella Typhimurium) (UniProt P69343)
T1 sequence: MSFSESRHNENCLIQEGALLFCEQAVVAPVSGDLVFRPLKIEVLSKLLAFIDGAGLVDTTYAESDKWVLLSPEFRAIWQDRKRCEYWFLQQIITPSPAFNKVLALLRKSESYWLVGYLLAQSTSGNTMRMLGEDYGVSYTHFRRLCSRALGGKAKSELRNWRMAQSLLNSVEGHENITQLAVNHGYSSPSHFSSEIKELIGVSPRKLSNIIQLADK

T2: MBP-InvF (expressed in Salmonella invF::Flag strain) (Salmonella Typhimurium) (UniProt P69343)
T2 sequence: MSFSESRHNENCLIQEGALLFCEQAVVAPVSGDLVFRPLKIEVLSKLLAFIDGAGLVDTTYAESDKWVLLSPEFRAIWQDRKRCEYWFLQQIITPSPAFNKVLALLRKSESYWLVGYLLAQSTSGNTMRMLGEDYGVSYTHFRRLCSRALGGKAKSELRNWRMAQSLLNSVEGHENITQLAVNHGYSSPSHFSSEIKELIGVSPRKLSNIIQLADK


Key:
[1] = biological target: T1, LexA_(DBDwt)-InvF (Salmonella Typhimurium); assay: two-hybrid; LexA-based bacterial two-hybrid, homodimer system in E. coli SU101, with SicA supplied in trans (pTOPO-SicA)
[2] = biological target: T1, LexA_(DBDwt)-InvF (Salmonella Typhimurium); assay: two-hybrid
[3] = biological target: T2, MBP-InvF (expressed in Salmonella invF::Flag strain) (Salmonella Typhimurium); assay: pull-down

Binder | binding [1] | binding [2] | binding [3]
LexA_(DBDwt)-InvF (protein, UniProt P69343 1-216) MSFSESRHNENCLIQEGALLFCEQAVVAPVSGDLVFRPLKIEVLSKLLAFIDGAGLVDTTYAESDKWVLLSPEFRAIWQDRKRCEYWFLQQIITPSPAFNKVLALLRKSESYWLVGYLLAQSTSGNTMRMLGEDYGVSYTHFRRLCSRALGGKAKSELRNWRMAQSLLNSVEGHENITQLAVNHGYSSPSHFSSEIKELIGVSPRKLSNIIQLADK | no binding | no binding | –
InvF-Flag (genomic version) (protein, UniProt P69343 1-216) MSFSESRHNENCLIQEGALLFCEQAVVAPVSGDLVFRPLKIEVLSKLLAFIDGAGLVDTTYAESDKWVLLSPEFRAIWQDRKRCEYWFLQQIITPSPAFNKVLALLRKSESYWLVGYLLAQSTSGNTMRMLGEDYGVSYTHFRRLCSRALGGKAKSELRNWRMAQSLLNSVEGHENITQLAVNHGYSSPSHFSSEIKELIGVSPRKLSNIIQLADK | – | – | no binding
